The source of these data is paper PMC11153525.

No constants are given. Whether binding was seen depends on the method and setting. In cells and extracts the contact can be indirect. Here binding means that the protein was enriched with, or labelled near, the bait; the list need not be complete.

The target of this test is FLAG-PRMT1, Q99873. Put plainly: affinity purification with mass spectrometry; Huh7 cells stably expressing FLAG-PRMT1 (FLAG vector as control) lysed and immunoprecipitated by FLAG beads; label-free quantitative proteomics, n = 2. As to conditions: remark: other sources report otherwise.

B1: FBXO7, endogenous, Q9Y3I1 1-522 (protein)
chain: MRLRVRLLKRTWPLEVPETEPTLGHLRSHLRQSLLCTWGYSSNTRFTITLNYKDPLTGDEETLASYGIVSGDLICLILQDDIPAPNIPSSTDSEHSSLQNNEQPSLATSSNQTSMQDEQPSDSFQGQAAQSGVWNDDSMLGPSQNFEAESIQDNAHMAEGTGFYPSEPMLCSESVEGQVPHSLETLYQSADCSDANDALIVLIHLLMLESGYIPQGTEAKALSMPEKWKLSGVYKLQYMHPLCEGSSATLTCVPLGNLIVVNATLKINNEIRSVKRLQLLPESFICKEKLGENVANIYKDLQKLSRLFKDQLVYPLLAFTRQALNLPDVFGLVVLPLELKLRIFRLLDVRSVLSLSAVCRDLFTASNDPLLWRFLYLRDFRDNTVRVQDTDWKELYRKRHIQRKESPKGRFVMLLPSSTHTIPFYPNPLHPRPFPSSRLPPGIIGGEYDQRPTLPYVGDPISSLIPGPGETPSQFPPLRPRFDPVGPLPGPNPILPGRGGPNDRFPFRPSRGRPTDGRLSFM
Take B1: the binding entry is reported as “binds”.
